## Percent effect of library compounds

The values are deposited in ChEMBL (CHEMBL3988442, “University of Dundee, Small-Polar-MMV Screening Library” (2021)).

Values are the deposited “Percent Effect”, in %.
The record does not define 0% and 100%; most values in the screen are far below 50% and negative numbers occur (in some assays of this library far below -100).
This is an unselected part of the compounds tested.

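Cell assay of Leishmania donovani living inside macrophages; the read-out is not stated. Concentration: 30 µM. Higher reads as stronger inhibition (inferred: compounds with an IC50 in retests scored well above the rest). Size under these conditions: about 69,000 compounds, about 1,000 of them at 50% or above in at least one test.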

For Cc1cc(NC(=O)c2ccc(Br)cc2F)n(C)n1 the result was -14.57%.
For Cc1ccc(CN2CCCC(c3cnccn3)C2)s1 (stereo unspecified) the result was 27.06%.
For Cc1cc(CN2CCN(C(=O)NC(C)Cn3cccn3)CC2)no1 (stereo unspecified) the result was 19.78%.
For N#CC1(NC(=O)COc2cc(Cl)cc(Cl)c2)CCOCC1 the result was -14.51%.
For O=C(NC[C@H]1OC[C@@H](NCc2ccccc2F)[C@@H]1O)Nc1ccccc1 the result was 5.29%.
For CC(C)(C)CC(=O)N1CCc2sccc2C1 the result was -1.971%.
For CS(=O)(=O)N1CC2(CCN(C3COC3)C2)Cc2ccccc21 (stereo unspecified) the result was -0.03892%.
For O=C(CN1CCC(c2nnc(C(F)(F)F)o2)CC1)Nc1cccnc1 the result was -10.67%.
For COc1c(CNCc2ccc(CN3CCOCC3)cc2)c(C)nn1C the result was 8.74%.
For [H][C@@]12CCCC[C@]1(O)CCN(Cc1ccc(OC)c(C(=O)O)c1)C2 the result was 2.045%.
For COc1cc(-c2cnnc(NCCSC)n2)cc(OC)c1OC the result was -3.366%.
For O=C(O)C(F)(F)F.[H][C@]12CCC[C@@H](CN(C)C)[C@@]1([H])CN(c1cc(OC)ncn1)C2 the result was 26.95%.
For NC(=O)N1CCCN(C(=O)Nc2cc(-n3cccc3)ccc2F)CC1 the result was 1.277%.
For COCC(=O)N1CCn2c(CN3CCN(C)CC3)cnc2C1.O=C(O)C(F)(F)F.O=C(O)C(F)(F)F the result was 11.63%.
For Cc1ncc(S(C)(=O)=O)c(N2CCCCCC2)n1 the result was -11.84%.
For CC(C)(C)OC(=O)N1CCCc2ccc(NCc3cc[nH]c3)cc21 the result was 24.71%.
For O=C(CN1CCOC(Cn2cccn2)C1)Nc1cccnc1 (stereo unspecified) the result was 15.78%.
For Cc1nc(C)n(CC2CN(c3ncccn3)Cc3nccn3C2)n1 (stereo unspecified) the result was 19.5%.

The first 2 entries again:

{"smiles": "Cc1cc(NC(=O)c2ccc(Br)cc2F)n(C)n1", "Percent Effect": -14.57}
{"smiles": "Cc1ccc(CN2CCCC(c3cnccn3)C2)s1", "stereo": "stereo unspecified", "Percent Effect": 27.06}